Source: the supplement of paper PMC3334620
In all, about 33,000 sequences were measured (“E-score (-0.5 to 0.5)”: median about -0.0014, highest 2% from about 0.25 on). This is one part of the list.

biological target: T1, Cad1 (UniProt P24813); test: PBM E-score (8-mer binding enrichment) (E-score (-0.5 to 0.5)); higher = stronger / more preferred TF binding; conditions: protein concentration: 100 nM; construct: GST-full length
T1 sequence: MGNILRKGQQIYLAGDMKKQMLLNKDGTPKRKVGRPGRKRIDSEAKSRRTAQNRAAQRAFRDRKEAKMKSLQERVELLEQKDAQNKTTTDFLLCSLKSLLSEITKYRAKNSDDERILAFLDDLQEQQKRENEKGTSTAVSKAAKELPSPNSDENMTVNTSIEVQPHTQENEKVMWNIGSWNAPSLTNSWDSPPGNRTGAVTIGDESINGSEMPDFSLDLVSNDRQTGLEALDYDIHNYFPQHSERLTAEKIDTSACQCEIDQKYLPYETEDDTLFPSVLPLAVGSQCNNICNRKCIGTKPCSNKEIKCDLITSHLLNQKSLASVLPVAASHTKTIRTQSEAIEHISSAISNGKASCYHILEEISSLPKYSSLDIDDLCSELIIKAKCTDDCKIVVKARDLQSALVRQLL
In short: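 The E-score, a modified Wilcoxon-Mann-Whitney statistic, was computed by the Universal PBM Analysis Suite for every ungapped eight-base word pooled with its reverse complement. Scans behind it were normalised with masliner after bound GST-tagged yeast transcription factors were detected with fluorescent anti-GST. The proteins, at about 100-200 nM, had been applied to universal all-10-mer Agilent arrays made double-stranded by primer extension.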

Point of comparison: GTCCGTAA, “PBM E-score” value 0.098. Against it:
- CAATCGCC — lower, -0.00155
- ATCAGCAC — lower, 0.0147
- AATTCAAT — higher, 0.162
- CTACCCTA — lower, -0.129
- CCAGACAA — lower, 0.0234
- TACTACGA — higher, 0.116
- TAACCCGA — lower, -0.00699
- TCCTCTAA — lower, -0.139
- TAGGGTGA — lower, -0.00775
- GGTCACAC — lower, -0.212
- ACGACTTA — lower, -0.0249
- GACTGCAC — lower, -0.0126
- CTGAAGAC — lower, -0.0558
- CCGAGTAA — lower, -0.00219
- CAGCACCG — lower, -0.138
- AAGGGATC — lower, -0.236
- CGGAGATA — lower, 0.0493
- AGTCCAGA — lower, 0.00188
- AGGAGCTA — lower, -0.255
- ATCCCGTA — higher, 0.116
- ATCGGGAC — lower, -0.12
- CGTCTCCA — lower, 0.00987
- ACAAATAC — higher, 0.271
- ACATCTTG — lower, -0.172
- AATAAACG — higher, 0.177
- AGATATTC — lower, 0.0892
- CAGAGTGC — lower, -0.0155
- AGCCTCTA — lower, -0.288
- CCCACCCC — lower, 0.0432
- AACAGGGA — lower, 0.0284
- CGAATGCA — higher, 0.101
- CATGTGTA — lower, 0.0667
- AGGCCAAG — lower, -0.197
- AGGAGCAC — lower, -0.0512
- AACCCTAC — lower, -0.291
- ATTATACG — higher, 0.237
- ATGGACCC — lower, -0.0809
- GTTTACAA — higher, 0.138
- TCCGCCAA — lower, -0.096
- CTCATTAC — higher, 0.204
- GGCATGCA — higher, 0.183
- ACTTGCTG — lower, -0.0943
- ACGGCCTC — lower, 0.0237
- GGCTCGTA — lower, 0.0824
- CCTTGGCG — lower, -0.288
- CGAATAGA — lower, 0.0513
- ACTTATTA — higher, 0.192
- ACCAGTTC — lower, -0.0878
- CATAAGCG — lower, 0.0735
- GCACTCGA — lower, 0.0531
- CTTCCACC — lower, -0.254
- CCGGTACG — lower, -0.169
- AGGAGTAA — lower, 0.027
- GAGCTTAA — lower, -0.051
- ATGCTATG — higher, 0.125
- GCTGTTCC — lower, -0.0944
- ATCAGGGA — lower, -0.119
- AAGTTGGC — lower, -0.125
- CGTGTGAC — lower, 0.0826
- GCCATCCA — lower, -0.131
- ATCTAGTA — higher, 0.193
- CCGGAGAA — lower, -0.0877
- AATTCTGG — lower, 0.0109
- CATCGAAG — lower, 0.0775
- ATTCGTGC — lower, 0.0484
- AACAACCC — lower, -0.0929
- CTGTCCTA — lower, -0.179
- GATTCGTA — higher, 0.134
- ACTAGTCG — lower, -0.0636
- CCCCTTAG — lower, -0.213
- ACTCTAAG — lower, -0.094
- CGATTGCA — higher, 0.134
- AAGTGCTG — lower, 0.0929
- AAAGGCTT — lower, -0.0338
- TGATAGAA — lower, 0.0818
- AATGTTGA — lower, -0.0828
- GATTCTTA — higher, 0.186
- TCTCCAAA — lower, -0.116
- ACTCATTC — higher, 0.123
- GTATATTA — higher, 0.115
- CGCTATCC — lower, 0.0948
- AGGTCTAC — lower, -0.108
- CGCGCCAA — lower, -0.0117
- TGAAGGAA — higher, 0.107
- ACGGGTCG — lower, 0.0697
- ATATCACC — higher, 0.151
- CGCATCAG — higher, 0.125
- CCGCAACA — lower, 0.06
- CCGTTCTA — higher, 0.128
- ACATTGGA — lower, -0.121
- ATGTAGCC — lower, -0.273
- ACGAAGCT — lower, 0.0162
- AGAGCCGC — lower, 0.0524
- ATTTAATG — higher, 0.213
- ATGATCAA — higher, 0.2
- GGTCCTAC — lower, -0.274
- ATCAACCA — lower, -0.00508
- CCGAGCCG — lower, -0.0389
- CCGGTTAC — higher, 0.0987
- AGCGCTGA — higher, 0.258
- CATGGCAG — lower, -0.0124
- GCTGATCA — lower, 0.0264
- TATTGAAA — higher, 0.183
- ATTCTTGA — higher, 0.143
- ATTGCCCG — lower, 0.0525
- ACGAAACT — higher, 0.147
- AGAGGGCA — lower, -0.226
- GCGCCCAC — lower, -0.0659
